In US9532994B2, “Agents and methods for enhancing bone formation by oxysterols in combination with bone morphogenic proteins” (THE REGENTS OF THE UNIVERSITY OF CALIFORNIA, priority 2003, dated 2017):
Some of these results come from one statement about several compounds together.

Test system: marrow stromal cells
Test: Osteogenic activity/effects of oxysterol combinations in marrow stromal cells, readout not specified
Format: cell-based, mouse
Details: 1-10 μM, M2 cells

SMILES	inhibition of osteogenic effects of 22R+20S oxysterol combination
CC(C(=O)O)c1ccc(-c2ccccc2)c(F)c1 (centres unmarked) [Fluriprofin]	25-30%
CC(C)Cc1ccc(C(C)C(=O)O)cc1 (centres unmarked) [Ibuprofen]	25-30%
